We go through one molecule from paper PMC10252828.

This experiment has as its target T1, PSMA4-GFP (20S proteasomal subunit PSMA4 with GFP fused C-terminally) (D. discoideum) (UniProt P34119).
T1 sequence: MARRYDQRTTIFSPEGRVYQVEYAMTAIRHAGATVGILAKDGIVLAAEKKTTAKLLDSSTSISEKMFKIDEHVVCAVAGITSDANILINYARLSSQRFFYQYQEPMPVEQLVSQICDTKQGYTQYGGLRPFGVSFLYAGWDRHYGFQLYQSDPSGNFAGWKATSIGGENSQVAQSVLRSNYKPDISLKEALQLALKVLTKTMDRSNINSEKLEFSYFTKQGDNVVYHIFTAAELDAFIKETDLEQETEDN
Kind of experiment: co-IP; GFP-trap beads, 2 h at 4 °C, with the soluble supernatant of lysates (20 mM Tris/HCl pH 7.5, 100 mM NaCl, 1 mM DTT, 20 mM MgCl2, 5% glycerol) of AX2 and ATG16- cells expressing RFP-PSMD1 and PSMA4-GFP; cells without PSMA4-GFP as negative controls; bound proteins by SDS-PAGE with silver staining or Western blot (anti-GFP, anti-PSMA4). On the technique in general: A western blot detects proteins with antibodies after separation by electrophoresis.

These are yes or no findings as the source states them, for the method shown. In cells and extracts the contact can be indirect. Some results given as binding are weak or reduced against the parent protein; the word gives no strength. Tags and fused reporters may be left off the sequences shown.

B1: endogenous PSMA4 (protein, UniProt P34119 1-250)
chain: T1 sequence
In the case of B1, the binding entry is “binds”.
